Assay results published in PMC7819943, “Rice protein-binding microarrays: a tool to detect cis-acting elements near promoter regions in rice”.
Some of the results follow.

biological target: T1, OsSMF1 (Oryza sativa, UniProt Q6ZLB0 1-436); assay: protein-binding microarray (RPBM); PBS, 2% BSA, 51.3 ng/ul salmon testes DNA, 50 uM zinc acetate, 200 nM TF, 25 C, 1 h; high values mean tight binding; settings: protein: recombinant; tags: N-terminal polyhistidine and DsRed monomer fusion (pET32a); chain copies: 2; label: CyDye5-dUTP incorporated in the synthesized complementary strand; 3' TTTTT single-stranded linker to array surface; dsDNA, one strand shown
T1 sequence: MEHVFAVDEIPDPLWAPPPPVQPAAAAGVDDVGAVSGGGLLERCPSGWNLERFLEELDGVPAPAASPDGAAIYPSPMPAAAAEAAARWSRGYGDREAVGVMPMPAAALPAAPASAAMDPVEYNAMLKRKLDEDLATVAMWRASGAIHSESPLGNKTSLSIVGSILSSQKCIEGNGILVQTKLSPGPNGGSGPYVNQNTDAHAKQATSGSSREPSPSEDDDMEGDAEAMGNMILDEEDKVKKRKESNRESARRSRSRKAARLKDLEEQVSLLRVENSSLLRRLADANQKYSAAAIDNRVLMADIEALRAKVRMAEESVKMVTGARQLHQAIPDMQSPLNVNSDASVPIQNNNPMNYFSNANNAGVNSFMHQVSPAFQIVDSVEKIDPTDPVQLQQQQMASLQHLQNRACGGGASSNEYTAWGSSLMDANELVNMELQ
Method in brief: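 The binding signal is fluorescence intensity per feature, in arbitrary units, read on an Axon 4000B scanner. Polyhistidine- and DsRed-tagged transcription factors (N-terminal fusions) from E. coli BL21-CodonPlus were purified on Ni–NTA and applied at 200 nM for 1 h at 25 °C to a double-stranded, BSA-blocked custom Agilent array in buffer with 50 µM zinc acetate.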

Sequence | binding signal
AGCTAGCAGAGGCGCCGTCGTGGTCGCCGTCGTTCGTCCTCGGAGTCACCTAGTGCAG | 4110 fluorescence intensity (a.u.)
CGAGTGACGAGGTCTTGGGTTGGGGTAGGGGTGGGATGAGCGGAGTCACCTAGTGCAG | 5240 fluorescence intensity (a.u.)
CTTTTGTTCACTTTGATCTAACAATTTAAGCATGATTATGCGGAGTCACCTAGTGCAG | 3190 fluorescence intensity (a.u.)
CTTATTCAAGATTTATATAATTATCATTTATTTTATTGGGCGGAGTCACCTAGTGCAG | 3840 fluorescence intensity (a.u.)
CTAATCAAAACCGGTCACAAAAGGTCCCTCGACGGTTTTGCGGAGTCACCTAGTGCAG | 4570 fluorescence intensity (a.u.)
GTCCTTCTTGCAACCAACAGTCTGGCAAGGCCGTTACGTCCGGAGTCACCTAGTGCAG | 3410 fluorescence intensity (a.u.)
CGTCCACTTCCGCCGCCGTCGCCGCGTCCACCGCAGCCGCCGGAGTCACCTAGTGCAG | 3680 fluorescence intensity (a.u.)
GGAGGGCTAAGAATATATACTAGCATACAGTGCAGACGCTCGGAGTCACCTAGTGCAG | 3270 fluorescence intensity (a.u.)
GGCGGGCCTCGCCGGATCGCCGTCCACGTCCCGGCGACCGCGGAGTCACCTAGTGCAG | 4880 fluorescence intensity (a.u.)
GCTGCTGCACCACGTCCTTCCTCTTCCTCGCCCCACCACCCGGAGTCACCTAGTGCAG | 6380 fluorescence intensity (a.u.)
GAGAGTATTTGGAACACGTCATCACTTCGTCCCTTATTATCGGAGTCACCTAGTGCAG | 20200 fluorescence intensity (a.u.)
GAGTCGCGAGCGAGTTAGGAAGGGGTACGTCGCGGTTGGACGGAGTCACCTAGTGCAG | 3140 fluorescence intensity (a.u.)
AGCAGCCAAGAAGAAATTTCTAGTCAGCAGCAAAGCTCTCCGGAGTCACCTAGTGCAG | 4450 fluorescence intensity (a.u.)
CCCGCGGATCGATCGATCGCCGCCGCGCGCCTGGACGAGCCGGAGTCACCTAGTGCAG | 3300 fluorescence intensity (a.u.)
ACACGTCGGATTTGGGCTTGCGTGGCGCTAGGGTCCGCGCCGGAGTCACCTAGTGCAG | 9740 fluorescence intensity (a.u.)
GTAGAATGACACCGTACGAGTAGCTGCGAAATTACGCATCCGGAGTCACCTAGTGCAG | 3810 fluorescence intensity (a.u.)
TGCCGAGGCAGAGCAGCGGAAGAATGTGGGCCAAATTAGGCGGAGTCACCTAGTGCAG | 21700 fluorescence intensity (a.u.)
TGGGCCAGGTGACTCGCCACGTGGCCTCCTCGTAGGGCGGCGGAGTCACCTAGTGCAG | 12300 fluorescence intensity (a.u.)
GATAGGGATGACGCGGAGGTGGCCAGCCGTTCCACGTACTCGGAGTCACCTAGTGCAG | 7600 fluorescence intensity (a.u.)
CTCCCTCTGTCACCGCCCGTTCCTCTCCCGTTTGCCACGTCGGAGTCACCTAGTGCAG | 10800 fluorescence intensity (a.u.)
CTTCTTCGTTAGGGCGGCTACGTGTTTTAAAGGTTTGGCCCGGAGTCACCTAGTGCAG | 4330 fluorescence intensity (a.u.)

Part of the list above, in CSV form.
Sequence,binding signal
CTTATTCAAGATTTATATAATTATCATTTATTTTATTGGGCGGAGTCACCTAGTGCAG,3840 fluorescence intensity (a.u.)
GCTGCTGCACCACGTCCTTCCTCTTCCTCGCCCCACCACCCGGAGTCACCTAGTGCAG,6380 fluorescence intensity (a.u.)
ACACGTCGGATTTGGGCTTGCGTGGCGCTAGGGTCCGCGCCGGAGTCACCTAGTGCAG,9740 fluorescence intensity (a.u.)

Next part

Sequence | binding signal
AACCTGAGGGATTCAATAGCTCAAGTGAAGTCCGACGTTGCGGAGTCACCTAGTGCAG | 20600 fluorescence intensity (a.u.)
GGCGGCCACTGCATCGTTGGCGCCGTCCATCTCCATTAATCGGAGTCACCTAGTGCAG | 3530 fluorescence intensity (a.u.)
GAAATGGAACACCTGTCCACGTGAGCCGCCAATCCGCCGGCGGAGTCACCTAGTGCAG | 3370 fluorescence intensity (a.u.)
TATGCCCTGGTGGCATGCGATGTGTCAATTTATGGTCTTGCGGAGTCACCTAGTGCAG | 4000 fluorescence intensity (a.u.)
TGTCTCAGTCAGTGGATCACTGTGTCAGCACAGGCAGAGGCGGAGTCACCTAGTGCAG | 7720 fluorescence intensity (a.u.)
CTGTTGCACGTGCTTTGTTCACCGAAGGTTCCAGCTACTCCGGAGTCACCTAGTGCAG | 26900 fluorescence intensity (a.u.)
TTCCATGTGATGTCATCAACACGTACTCACCTGGCTACCTCGGAGTCACCTAGTGCAG | 15600 fluorescence intensity (a.u.)
TACGGCAGGATGCCACGTCAACAACCAGCCTCTCCCTTCCCGGAGTCACCTAGTGCAG | 30800 fluorescence intensity (a.u.)
TTTCTTTCAATATGGCATTAGTTGTCTTGCTGAGTTGGTTCGGAGTCACCTAGTGCAG | 4290 fluorescence intensity (a.u.)
TTAGAAGATAAATACACGTACGCGCGTGAGGCTAGCTATCCGGAGTCACCTAGTGCAG | 6050 fluorescence intensity (a.u.)
TCACTTCTATTCGTTCCTAGCTAGTAGCAAATTAAGCTGCCGGAGTCACCTAGTGCAG | 8130 fluorescence intensity (a.u.)
GCATTCTGACGCTATTGCATGGACAAACCATTATCCAAAGCGGAGTCACCTAGTGCAG | 3730 fluorescence intensity (a.u.)
ATCGCGCCCGAACCTACGCAGGGTCACTTACAGCGGGGCCCGGAGTCACCTAGTGCAG | 6000 fluorescence intensity (a.u.)
TCCCGCCACAAGCAACCAAGAAATCAAGAAACCGTTTCAGCGGAGTCACCTAGTGCAG | 19600 fluorescence intensity (a.u.)
TTTAGTATGTTTGCATGGCACGTGGAAGATCATTACTTATCGGAGTCACCTAGTGCAG | 4050 fluorescence intensity (a.u.)
TAACAACGTGATAACAGCAATTACGTGGTTGTTAGCAACCCGGAGTCACCTAGTGCAG | 6370 fluorescence intensity (a.u.)
GGGCTATATATTTATAGCCAGCTGTAGCACGGACTCCAAGCGGAGTCACCTAGTGCAG | 3310 fluorescence intensity (a.u.)
GGCCGCCACGCCGGGACGGTGCTGGCGGGCGGGCGCGCGCCGGAGTCACCTAGTGCAG | 3320 fluorescence intensity (a.u.)
TGGCCTTTCTTCCCGCCACATGTCACCCACCCCTAGCCCTCGGAGTCACCTAGTGCAG | 4670 fluorescence intensity (a.u.)
ATTGAATATTGAATTCTCTCTAGTTCCGCCACGTGTCCGCCGGAGTCACCTAGTGCAG | 22800 fluorescence intensity (a.u.)
CTAATGCCACGTAAGTGCCACGTGGCATGAAAACCGGGTTCGGAGTCACCTAGTGCAG | 46300 fluorescence intensity (a.u.)
